These results are taken from patent publication US20230115611A1, “TREATMENT OF PAIN AND VASOCONSTRICTION” (Aisa Pharma, Inc., priority 2020, published 2023).

Protein sequences, listed by entry. Tags and fused reporters are not part of them.
UniProt Q15858, whole entry: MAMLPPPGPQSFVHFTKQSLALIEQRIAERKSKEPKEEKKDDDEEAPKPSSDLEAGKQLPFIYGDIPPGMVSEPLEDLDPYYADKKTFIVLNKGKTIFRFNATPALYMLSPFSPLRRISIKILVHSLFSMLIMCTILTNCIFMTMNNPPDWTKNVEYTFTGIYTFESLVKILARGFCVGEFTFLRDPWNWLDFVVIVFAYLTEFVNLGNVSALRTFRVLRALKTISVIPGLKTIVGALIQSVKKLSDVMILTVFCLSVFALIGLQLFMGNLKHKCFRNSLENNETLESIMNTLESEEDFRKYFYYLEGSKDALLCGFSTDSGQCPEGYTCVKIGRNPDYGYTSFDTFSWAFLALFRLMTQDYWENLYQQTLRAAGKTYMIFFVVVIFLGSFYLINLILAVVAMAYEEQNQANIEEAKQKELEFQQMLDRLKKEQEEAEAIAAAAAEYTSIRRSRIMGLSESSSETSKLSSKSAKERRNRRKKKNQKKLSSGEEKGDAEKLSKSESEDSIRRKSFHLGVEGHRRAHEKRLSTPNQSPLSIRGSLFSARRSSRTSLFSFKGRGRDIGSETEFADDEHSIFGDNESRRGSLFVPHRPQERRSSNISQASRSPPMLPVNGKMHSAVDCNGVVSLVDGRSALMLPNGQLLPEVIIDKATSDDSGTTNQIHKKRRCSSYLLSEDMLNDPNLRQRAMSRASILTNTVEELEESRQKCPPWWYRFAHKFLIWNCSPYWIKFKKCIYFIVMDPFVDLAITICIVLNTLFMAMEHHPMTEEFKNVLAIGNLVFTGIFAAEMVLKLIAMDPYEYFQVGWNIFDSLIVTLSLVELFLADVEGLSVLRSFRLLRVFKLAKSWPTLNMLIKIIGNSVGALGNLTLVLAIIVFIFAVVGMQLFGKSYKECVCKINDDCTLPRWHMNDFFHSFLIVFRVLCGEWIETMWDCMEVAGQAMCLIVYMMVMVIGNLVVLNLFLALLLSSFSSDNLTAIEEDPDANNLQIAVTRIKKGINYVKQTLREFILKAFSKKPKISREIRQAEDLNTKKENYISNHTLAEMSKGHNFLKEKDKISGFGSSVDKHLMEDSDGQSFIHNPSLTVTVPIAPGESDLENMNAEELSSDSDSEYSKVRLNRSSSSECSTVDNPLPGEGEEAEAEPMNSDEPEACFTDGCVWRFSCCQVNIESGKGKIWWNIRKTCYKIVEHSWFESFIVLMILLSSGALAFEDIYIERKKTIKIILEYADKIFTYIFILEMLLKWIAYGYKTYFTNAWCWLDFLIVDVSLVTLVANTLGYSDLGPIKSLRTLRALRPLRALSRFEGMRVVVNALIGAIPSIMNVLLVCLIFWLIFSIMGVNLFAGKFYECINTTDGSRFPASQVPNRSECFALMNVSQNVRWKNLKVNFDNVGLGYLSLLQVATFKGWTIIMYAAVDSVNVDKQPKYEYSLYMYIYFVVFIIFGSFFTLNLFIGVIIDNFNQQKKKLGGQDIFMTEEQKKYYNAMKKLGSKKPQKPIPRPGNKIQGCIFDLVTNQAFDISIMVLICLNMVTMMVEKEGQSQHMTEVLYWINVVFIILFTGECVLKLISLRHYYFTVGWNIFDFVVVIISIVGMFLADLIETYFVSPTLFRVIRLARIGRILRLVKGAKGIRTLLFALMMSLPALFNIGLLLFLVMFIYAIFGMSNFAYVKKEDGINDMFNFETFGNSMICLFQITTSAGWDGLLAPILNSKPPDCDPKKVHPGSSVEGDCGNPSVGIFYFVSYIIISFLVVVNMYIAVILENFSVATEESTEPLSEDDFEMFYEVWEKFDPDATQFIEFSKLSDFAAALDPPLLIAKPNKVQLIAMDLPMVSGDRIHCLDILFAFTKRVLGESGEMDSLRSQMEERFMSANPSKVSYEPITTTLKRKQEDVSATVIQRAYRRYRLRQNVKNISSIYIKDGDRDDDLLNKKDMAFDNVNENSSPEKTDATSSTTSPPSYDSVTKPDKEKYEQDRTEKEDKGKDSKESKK

The target in this assay is T1, human Nav 1.7 (Homo sapiens, UniProt Q15858).
T1 construct: expressed in transfected cells
Nature of the assay: Nav 1.7 sodium channel inhibition, automated patch clamp (QPATCH II), two pulse voltage protocol. The following applies: CHO cells, compound at/around Cmax concentration as in Table 4. It counts as cell-based. As for the experimental part:
Chinese Hamster Ovary (CHO) cells stably expressing human Nav 1.7 were cultured according to the manufacturer's standard operating procedure (SOP) and enzymatically lifted into solution following Sophion's standard SOP.
Voltage protocol 1 (VP1): A voltage protocol designed to generate a current voltage relationship and to estimate the half inactivation potential (V1/2) was used. The first voltage protocol was used as quality control and the latter was used later in the experiment (see below).
Voltage protocol 2 (VP2): Two pulse voltage protocol. FIG. 2 depicts a two pulse voltage protocol. The line marked with an asterisk indicates the voltage that was applied to the cell. In the beginning, all channels were in the closed state (V=−120 mV). A depolarization step to V=10 mV (P1) activated all channels and produced the largest possible current. Next, cells were kept at the V1/2 value for 1 s. […] A second stimulation to V=−10 mV activated all channels that were in the closed state (50%). Compound effects were assessed at both P1 and P2. State dependent compounds will show a different degree of inhibition at the two different pulses. This protocol was repeated every 10 s to monitor compound effects on the channel.
In general terms: The patch-clamp technique gives a direct electrical read-out from membranes.

For `COC(=O)C1=C(C)NC(C)=C(C(=O)OC)C1c1ccccc1[N+](=O)[O-]` [nifedipine], the “Mean % inhibition-closed state” value (closed state (P1) of Nav 1.7) is −2.2%. Where the note is “inactivated state (P2) of Nav 1.7”, the “Mean % inhibition-inactivated state” value worked out at 37.5%.
